According to US20250283871A1, “COMPOSITIONS AND METHODS FOR MODULATING THE INTERACTION BETWEEN SS18-SSX FUSION ONCOPROTEIN AND NUCLEOSOMES” (Dana-Farber Cancer Institute, Inc., priority 2020, published 2025):

B1: RBM22 (protein, UniProt Q9NW64 2-420, looked up)
Pre-mRNA-splicing factor RBM22: ATSLGSNTYNRQNWEDADFPILCQTCLGENPYIRMTKEKYGKECKICARPFTVFRWCPGVRMRFKKTEVCQTCSKLKNVCQTCLLDLEYGLPIQVRDAGLSFKDDMPKSDVNKEYYTQNMEREISNSDGTRPVGMLGKATSTSDMLLKLARTTPYYKRNRPHICSFWVKGECKRGEECPYRHEKPTDPDDPLADQNIKDRYYGINDPVADKLLKRASTMPRLDPPEDKTITTLYVGGLGDTITETDLRNHFYQFGEIRTITVVQRQQCAFIQFATRQAAEVAAEKSFNKLIVNGRRLNVKWGRSQAARGKEKEKDGTTDSGIKLEPVPGLPGALPPPPAAEEEASANYFNLPPSGPPAVVNIALPPPPGIAPPPPPGFGPHMFHPMGPPPPFMRAPGPIHYPSQDPQRMGAHAGKHSSP
B2: ZSCAN25 (protein, UniProt Q6NSZ9 1-544, looked up)
Zinc finger and SCAN …: MLKEHPEMAEAPQQQLGIPVVKLEKELPWGRGREDPSPETFRLRFRQFRYQEAAGPQEALRELQELCRRWLRPELHTKEQILELLVLEQFLTILPREFYAWIREHGPESGKALAAMVEDLTERALEAKAVPCHRQGEQEETALCRGAWEPGIQLGPVEVKPEWGMPPGEGVQGPDPGTEEQLSQDPGDETRAFQEQALPVLQAGPGLPAVNPRDQEMAAGFFTAGSQGLGPFKDMALAFPEEEWRHVTPAQIDCFGEYVEPQDCRVSPGGGSKEKEAKPPQEDLKGALVALTSERFGEASLQGPGLGRVCEQEPGGPAGSAPGLPPPQHGAIPLPDEVKTHSSFWKPFQCPECGKGFSRSSNLVRHQRTHEEKSYGCVECGKGFTLREYLMKHQRTHLGKRPYVCSECWKTFSQRHHLEVHQRSHTGEKPYKCGDCWKSFSRRQHLQVHRRTHTGEKPYTCECGKSFSRNANLAVHRRAHTGEKPYGCQVCGKRFSKGERLVRHQRIHTGEKPYHCPACGRSFNQRSILNRHQKTQHRQEPLVQ
B3: UBTF (protein, UniProt P17480 1-764, looked up)
Nucleolar transcription …: MNGEADCPTDLEMAAPKGQDRWSQEDMLTLLECMKNNLPSNDSSKFKTTESHMDWEKVAFKDFSGDMCKLKWVEISNEVRKFRTLTELILDAQEHVKNPYKGKKLKKHPDFPKKPLTPYFRFFMEKRAKYAKLHPEMSNLDLTKILSKKYKELPEKKKMKYIQDFQREKQEFERNLARFREDHPDLIQNAKKSDIPEKPKTPQQLWYTHEKKVYLKVRPDATTKEVKDSLGKQWSQLSDKKRLKWIHKALEQRKEYEEIMRDYIQKHPELNISEEGITKSTLTKAERQLKDKFDGRPTKPPPNSYSLYCAELMANMKDVPSTERMVLCSQQWKLLSQKEKDAYHKKCDQKKKDYEVELLRFLESLPEEEQQRVLGEEKMLNINKKQATSPASKKPAQEGGKGGSEKPKRPVSAMFIFSEEKRRQLQEERPELSESELTRLLARMWNDLSEKKKAKYKAREAALKAQSERKPGGEREERGKLPESPKRAEEIWQQSVIGDYLARFKNDRVKALKAMEMTWNNMEKKEKLMWIKKAAEDQKRYERELSEMRAPPAATNSSKKMKFQGEPKKPPMNGYQKFSQELLSNGELNHLPLKERMVEIGSRWQRISQSQKEHYKKLAEEQQKQYKVHLDLWVKSLSPQDRAAYKEYISNKRKSMTKLRGPNPKSSRTTLQSKSESEEDDEEDEDDEDEDEEEEDDENGDSSEDGGDSSESSSEDESEDGDENEEDDEDEDDDEDDDEDEDNESEGSSSSSSSSGDSSDSDSN
B4: PHB (protein, UniProt P35232 2-272, looked up)
Prohibitin 1: AAKVFESIGKFGLALAVAGGVVNSALYNVDAGHRAVIFDRFRGVQDIVVGEGTHFLIPWVQKPIIFDCRSRPRNVPVITGSKDLQNVNITLRILFRPVASQLPRIFTSIGEDYDERVLPSITTEILKSVVARFDAGELITQRELVSRQVSDDLTERAATFGLILDDVSLTHLTFGKEFTEAVEAKQVAQQEAERARFVVEKAEQQKKAAIISAEGDSKAAELIANSLATAGDGLIELRKLEAAEDIAYQLSRSRNITYLPAGQSVLLQLPQ
B5: NUP88 (protein, UniProt Q99567 2-741, looked up)
Nuclear pore complex protein …: AAAEGPVGDGELWQTWLPNHVVFLRLREGLKNQSPTEAEKPASSSLPSSPPPQLLTRNVVFGLGGELFLWDGEDSSFLVVRLRGPSGGGEEPALSQYQRLLCINPPLFEIYQVLLSPTQHHVALIGIKGLMVLELPKRWGKNSEFEGGKSTVNCSTTPVAERFFTSSTSLTLKHAAWYPSEILDPHVVLLTSDNVIRIYSLREPQTPTNVIILSEAEEESLVLNKGRAYTASLGETAVAFDFGPLAAVPKTLFGQNGKDEVVAYPLYILYENGETFLTYISLLHSPGNIGKLLGPLPMHPAAEDNYGYDACAVLCLPCVPNILVIATESGMLYHCVVLEGEEEDDHTSEKSWDSRIDLIPSLYVFECVELELALKLASGEDDPFDSDFSCPVKLHRDPKCPSRYHCTHEAGVHSVGLTWIHKLHKFLGSDEEDKDSLQELSTEQKCFVEHILCTKPLPCRQPAPIRGFWIVPDILGPTMICITSTYECLIWPLLSTVHPASPPLLCTREDVEVAESPLRVLAETPDSFEKHIRSILQRSVANPAFLKASEKDIAPPPEECLQLLSRATQVFREQYILKQDLAKEEIQRRVKLLCDQKKKQLEDLSYCREERKSLREMAERLADKYEEAKEKQEDIMNRMKKLLHSFHSELPVLSDSERDMKKELQLIPDQLRHLGNAIKQVTMKKDYQQQKMEKVLSLPKPTIILSAYQRKCIQSILKEEGEHIREMVKQINDIRNHVNF
B6: DPF1 (protein, UniProt Q92782 1-387, looked up)
Zinc finger protein neuro-d4: MATVIPGPLSLGEDFYREAIEHCRSYNARLCAERSLRLPFLDSQTGVAQNNCYIWMEKTHRGPGLAPGQIYTYPARCWRKKRRLNILEDPRLRPCEYKIDCEAPLKKEGGLPEGPVLEALLCAETGEKKIELKEEETIMDCQKQQLLEFPHDLEVEDLEDDIPRRKNRAKGKAYGIGGLRKRQDTASLEDRDKPYVCDICGKRYKNRPGLSYHYTHTHLAEEEGEENAERHALPFHRKNNHKQFYKELAWVPEAQRKHTAKKAPDGTVIPNGYCDFCLGGSKKTGCPEDLISCADCGRSGHPSCLQFTVNMTAAVRTYRWQCIECKSCSLCGTSENDDQLLFCDDCDRGYHMYCLSPPMAEPPEGSWSCHLCLRHLKEKASAYITLT
B7: PHC3 (protein, UniProt Q8NDX5 1-983, looked up)
Polyhomeotic-like protein 3: MDTEPNPGTSSVSTTTSSTTTTTITTSSSRMQQPQISVYSGSDRHAVQVIQQALHRPPSSAAQYLQQMYAAQQQHLMLHTAALQQQHLSSSQLQSLAAVQASLSSGRPSTSPTGSVTQQSSMSQTSINLSTSPTPAQLISRSQASSSTSGSITQQTMLLGSTSPTLTASQAQMYLRAQMLIFTPATTVAAVQSDIPVVSSSSSSSCQSAATQVQNLTLRSQKLGVLSSSQNGPPKSTSQTQSLTICHNKTTVTSSKISQRDPSPESNKKGESPSLESRSTAVTRTSSIHQLIAPASYSPIQPHSLIKHQQIPLHSPPSKVSHHQLILQQQQQQIQPITLQNSTQDPPPSQHCIPLQNHGLPPAPSNAQSQHCSPIQSHPSPLTVSPNQSQSAQQSVVVSPPPPHSPSQSPTIIIHPQALIQPHPLVSSALQPGPNLQQSTANQVQATAQLNLPSHLPLPASPVVHIGPVQQSALVSPGQQIVSPSHQQYSSLQSSPIPIASPPQMSTSPPAQIPPLPLQSMQSLQVQPEILSQGQVLVQNALVSEEELPAAEALVQLPFQTLPPPQTVAVNLQVQPPAPVDPPVVYQVEDVCEEEMPEESDECVRMDRTPPPPTLSPAAITVGRGEDLTSEHPLLEQVELPAVASVSASVIKSPSDPSHVSVPPPPLLLPAATTRSNSTSMHSSIPSIENKPPQAIVKPQILTHVIEGFVIQEGLEPFPVSRSSLLIEQPVKKRPLLDNQVINSVCVQPELQNNTKHADNSSDTEMEDMIAEETLEEMDSELLKCEFCGKMGYANEFLRSKRFCTMSCAKRYNVSCSKKFALSRWNRKPDNQSLGHRGRRPSGPDGAAREHILRQLPITYPSAEEDLASHEDSVPSAMTTRLRRQSERERERELRDVRIRKMPENSDLLPVAQTEPSIWTVDDVWAFIHSLPGCQDIADEFRAQEIDGQALLLLKEDHLMSAMNIKLGPALKICARINSLKES
B8: HNRNPA0 (protein, UniProt Q13151 1-305, looked up)
Heterogeneous nuclear …: MENSQLCKLFIGGLNVQTSESGLRGHFEAFGTLTDCVVVVNPQTKRSRCFGFVTYSNVEEADAAMAASPHAVDGNTVELKRAVSREDSARPGAHAKVKKLFVGGLKGDVAEGDLIEHFSQFGTVEKAEIIADKQSGKKRGFGFVYFQNHDAADKAAVVKFHPIQGHRVEVKKAVPKEDIYSGGGGGGSRSSRGGRGGRGRGGGRDQNGLSKGGGGGYNSYGGYGGGGGGGYNAYGGGGGGSSYGGSDYGNGFGGFGSYSQHQSSYGPMKSGGGGGGGGSSWGGRSNSGPYRGGYGGGGGYGGSSF
B9: RBM4B (protein, UniProt Q9BQ04 1-359, looked up)
RNA-binding protein 4B: MVKLFIGNLPREATEQEIRSLFEQYGKVLECDIIKNYGFVHIEDKTAAEDAIRNLHHYKLHGVNINVEASKNKSKASTKLHVGNISPTCTNQELRAKFEEYGPVIECDIVKDYAFVHMERAEDAVEAIRGLDNTEFQGKRMHVQLSTSRLRTAPGMGDQSGCYRCGKEGHWSKECPVDRTGRVADFTEQYNEQYGAVRTPYTMGYGESMYYNDAYGALDYYKRYRVRSYEAVAAAAAASAYNYAEQTMSHLPQVQSTTVTSHLNSTSVDPYDRHLLPNSGAAATSAAMAAAAATTSSYYGRDRSPLRRAAAMLPTVGEGYGYGPESELSQASAATRNSLYDMARYEREQYVDRARYSAF

System: BAF complex subunits and histone proteins
Experiment: Mass spectrometry proteomics of purified HA-SS18 WT and HA-SS18-SSX1 complexes (Tables 5A-5E)
Set-up: species or system human
Conditions: for Total / Unique: HA-SS18SSX1_CHR_peptides; for Total: total peptides of the identified protein; for Unique: unique peptides of the identified protein
[1] = HA-SS18WT_CHR_peptides: protein identified in HA-SS18 WT BAF complex purification from nuclease-treated solubilized chromatin (CHR), HEK-293T
[2] = HA-SS18SSX1 purification, NE (soluble nuclear extract) fraction, HEK-293T, peptides per identified protein
[3] = HA-SS18WT_CHR_peptides: HA-SS18 WT purification from nuclease-treated solubilized chromatin (CHR), HEK-293T, label = protein identified
[4] = HA-SS18WT_NE_peptides: proteins co-purified with HA-SS18 WT from nuclear extract (NE), HEK-293T
[5] = HA-SS18SSX1_CHR_peptides: protein identified in the HA-SS18-SSX1 purification from solubilized chromatin (CHR), HEK-293T
[6] = HA-SS18SSX1_NE_peptides: protein co-purified with HA-SS18-SSX1 BAF complexes from soluble nuclear extract (NE), HEK-293T cells
[7] = HA-SS18WT_NE_peptides: HA-SS18 WT complexes purified from nuclear extract (NE), HEK-293T, label = protein identified (Gene Symbol)

Molecule | Total | Unique | Total (peptides) [4] | Unique (peptides) [4] | Total (peptides) [6] | Unique (peptides) [6] | further results
B1 | 1 | 1 | – | – | – | – | Total (total peptides) [1]: 2; Unique (unique peptides) [1]: 2
B2 | 1 | 1 | 1 | 1 | – | – | Total (total peptides) [2]: 3; Unique (unique peptides) [2]: 3; Total (peptides) [3]: 6; Unique (peptides) [3]: 5
B3 | – | – | – | – | 2 | 2 | Total (total peptides) [5]: 27; Unique (unique peptides) [5]: 20; Total (peptides) [3]: 9; Unique (peptides) [3]: 9
B4 | 1 | 1 | 1 | 1 | 1 | 1 | –
B5 | 1 | 1 | – | – | – | – | –
B6 | 1 | 1 | 2 | 1 | 3 | 2 | Total (peptides) [7]: 4; Unique (peptides) [7]: 3
B7 | 1 | 1 | – | – | – | – | –
B8 | 1 | 1 | – | – | – | – | Total (total peptides) [1]: 1; Unique (unique peptides) [1]: 1
B9 | 1 | 1 | – | – | – | – | –
